Tested on: soybean explants
Assay: Soybean explant feeding 3 days with 50 mM cyclitol in 1% sucrose, slow drying time course, soluble carbohydrates in axis, cotyledon, seed coat and leaf
[1] = 3 days transport of sucrose (1%) and D-pinitol (50 mM), after 14 days slow drying, Rep 2
[2] = 3 days transport of sucrose (1%) and D-pinitol (50 mM), before slow drying, Rep 1
[3] = 3 days transport of sucrose (1%) and D-pinitol (50 mM), before slow drying, Rep 2
[4] = 3 days transport of sucrose (1%) and myo-inositol (50 mM), after 2 days slow drying, Rep 1
[5] = 3 days transport of sucrose (1%) and myo-inositol (50 mM), after 2 days slow drying, Rep 2
[6] = 3 days transport of sucrose (1%) and myo-inositol (50 mM), after 4 days slow drying, Rep 1
[7] = 3 days transport of sucrose (1%) and myo-inositol (50 mM), after 4 days slow drying, Rep 2
[8] = 3 days transport of sucrose (1%) and myo-inositol (50 mM), after 14 days slow drying, Rep 1
[9] = 3 days transport of sucrose (1%) and myo-inositol (50 mM), after 14 days slow drying, Rep 2
[10] = 3 days transport of sucrose (1%) and myo-inositol (50 mM), before slow drying, Rep 1
[11] = 3 days transport of sucrose (1%) and myo-inositol (50 mM), before slow drying, Rep 2
[12] = 3 days transport of sucrose (1%) without cyclitols, after 2 days slow drying, Rep 1
[13] = 3 days transport of sucrose (1%) without cyclitols, after 2 days slow drying, Rep 2
[14] = 3 days transport of sucrose (1%) without cyclitols, after 4 days slow drying, Rep 1
[15] = 3 days transport of sucrose (1%) without cyclitols, after 4 days slow drying, Rep 2
[16] = 3 days transport of sucrose (1%) without cyclitols, after 14 days slow drying, Rep 1
[17] = 3 days transport of sucrose (1%) without cyclitols, after 14 days slow drying, Rep 2
[18] = 3 days transport of sucrose (1%) without cyclitols, before slow drying, Rep 1
[19] = 3 days transport of sucrose (1%) without cyclitols, before slow drying, Rep 2

Compound: OC[C@H]1O[C@H](OC[C@H]2O[C@H](O[C@]3(CO)O[C@H](CO)[C@@H](O)[C@@H]3O)[C@H](O)[C@@H](O)[C@@H]2O)[C@H](O)[C@@H](O)[C@H]1O [Raffinose, raffinose]
- Accumulation of soluble carbohydrates in soybean cotyledon [1]: 162.90 μg/cotyledon
- Accumulation of soluble carbohydrates in soybean seed coat [1]: 18.53 μg/seed coat
- Accumulation of soluble carbohydrates in soybean axis [2]: 0 μg/axis
- Accumulation of soluble carbohydrates in soybean cotyledon [2]: 0 μg/cotyledon
- Accumulation of soluble carbohydrates in soybean axis [3]: 0 μg/axis
- Accumulation of soluble carbohydrates in soybean cotyledon [3]: 4.09 μg/cotyledon
- Accumulation of soluble carbohydrates in soybean axis [4]: 5.44 μg/axis
- Accumulation of soluble carbohydrates in soybean cotyledons [4]: 29.20 μg/cotyledon
- Accumulation of soluble carbohydrates in soybean seed coats [4]: 1.58 μg/seed coat
- Accumulation of soluble carbohydrates in soybean axis [5]: 1.83 μg/axis
- Accumulation of soluble carbohydrates in soybean cotyledons [5]: 89.65 μg/cotyledon
- Accumulation of soluble carbohydrates in soybean seed coats [5]: 0 μg/seed coat
- Accumulation of soluble carbohydrates in soybean axis [6]: 6.37 μg/axis
- Accumulation of soluble carbohydrates in soybean cotyledons [6]: 122.10 μg/cotyledon
- Accumulation of soluble carbohydrates in soybean axis [7]: 7.57 μg/axis
- Accumulation of soluble carbohydrates in soybean cotyledons [7]: 351.33 μg/cotyledon
- Accumulation of soluble carbohydrates in soybean seed coats [7]: 0 μg/seed coat
- Accumulation of soluble carbohydrates in soybean axis [8]: 14.51 μg/axis
- Accumulation of soluble carbohydrates in soybean cotyledons [8]: 165.12 μg/cotyledon
- Accumulation of soluble carbohydrates in soybean seed coats [8]: 7.44 μg/seed coat
- Accumulation of soluble carbohydrates in soybean axis [9]: 11.98 μg/axis
- Accumulation of soluble carbohydrates in soybean cotyledons [9]: 218.44 μg/cotyledon
- Accumulation of soluble carbohydrates in soybean seed coats [9]: 24.24 μg/seed coat
- Accumulation of soluble carbohydrates in soybean axis [10]: Tr
- Accumulation of soluble carbohydrates in soybean cotyledons [10]: 0 μg/cotyledon
- Accumulation of soluble carbohydrates in soybean axis [11]: 0 μg/axis
- Accumulation of soluble carbohydrates in soybean cotyledons [11]: 0 μg/cotyledon
- Accumulation of soluble carbohydrates in soybean axis [12]: 5.83 μg/axis
- Accumulation of soluble carbohydrates in soybean cotyledon [12]: 34.55 μg/cotyledon
- Accumulation of soluble carbohydrates in soybean seed coats [12]: 3.50 μg/seed coat
- Accumulation of soluble carbohydrates in soybean axis [13]: 8.95 μg/axis
- Accumulation of soluble carbohydrates in soybean cotyledon [13]: 85.98 μg/cotyledon
- Accumulation of soluble carbohydrates in soybean seed coats [13]: 5.06 μg/seed coat
- Accumulation of soluble carbohydrates in soybean axis [14]: 8.58 μg/axis
- Accumulation of soluble carbohydrates in soybean cotyledon [14]: 200.22 μg/cotyledon
- Accumulation of soluble carbohydrates in soybean seed coats [14]: 1.08 μg/seed coat
- Accumulation of soluble carbohydrates in soybean axis [15]: 12.44 μg/axis
- Accumulation of soluble carbohydrates in soybean cotyledon [15]: 312.69 μg/cotyledon
- Accumulation of soluble carbohydrates in soybean seed coats [15]: 0 μg/seed coat
- Accumulation of soluble carbohydrates in soybean axis [16]: 13.14 μg/axis
- Accumulation of soluble carbohydrates in soybean cotyledon [16]: 273.49 μg/cotyledon
- Accumulation of soluble carbohydrates in soybean seed coats [16]: 0 μg/seed coat
- Accumulation of soluble carbohydrates in soybean axis [17]: 8.02 μg/axis
- Accumulation of soluble carbohydrates in soybean cotyledon [17]: 444.34 μg/cotyledon
- Accumulation of soluble carbohydrates in soybean seed coats [17]: 8.44 μg/seed coat
- Accumulation of soluble carbohydrates in soybean axis [18]: 0.62 μg/axis
- Accumulation of soluble carbohydrates in soybean cotyledon [18]: 4.97 μg/cotyledon
- Accumulation of soluble carbohydrates in soybean axis [19]: 2.65 μg/axis
- Accumulation of soluble carbohydrates in soybean cotyledon [19]: 2.41 μg/cotyledon
- change after feeding myo-inositol (seed coat of dry seeds (14 days slow drying)): doubled
